Experimental data from paper PMC6021502, “Cannabigerol Action at Cannabinoid CB1 and CB2 Receptors and at CB1–CB2 Heteroreceptor Complexes” (Frontiers in Pharmacology, 2018).
No constants are given. Whether binding was seen depends on the method and setting. In cells and extracts the contact can be indirect. Some entries that bind do so weakly or less than the wild type.

Sequences of proteins named here, by UniProt entry; tags and fusion partners are left off.
UniProt P34972: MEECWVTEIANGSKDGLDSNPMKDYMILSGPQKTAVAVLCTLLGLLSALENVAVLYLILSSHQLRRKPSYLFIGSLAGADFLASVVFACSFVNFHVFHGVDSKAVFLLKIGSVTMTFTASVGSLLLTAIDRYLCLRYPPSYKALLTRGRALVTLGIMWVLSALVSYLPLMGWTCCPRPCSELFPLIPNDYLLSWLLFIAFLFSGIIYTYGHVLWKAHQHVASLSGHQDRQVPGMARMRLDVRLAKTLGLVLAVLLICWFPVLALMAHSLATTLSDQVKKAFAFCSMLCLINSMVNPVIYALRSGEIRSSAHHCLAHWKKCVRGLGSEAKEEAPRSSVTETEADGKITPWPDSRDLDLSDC
UniProt P21554: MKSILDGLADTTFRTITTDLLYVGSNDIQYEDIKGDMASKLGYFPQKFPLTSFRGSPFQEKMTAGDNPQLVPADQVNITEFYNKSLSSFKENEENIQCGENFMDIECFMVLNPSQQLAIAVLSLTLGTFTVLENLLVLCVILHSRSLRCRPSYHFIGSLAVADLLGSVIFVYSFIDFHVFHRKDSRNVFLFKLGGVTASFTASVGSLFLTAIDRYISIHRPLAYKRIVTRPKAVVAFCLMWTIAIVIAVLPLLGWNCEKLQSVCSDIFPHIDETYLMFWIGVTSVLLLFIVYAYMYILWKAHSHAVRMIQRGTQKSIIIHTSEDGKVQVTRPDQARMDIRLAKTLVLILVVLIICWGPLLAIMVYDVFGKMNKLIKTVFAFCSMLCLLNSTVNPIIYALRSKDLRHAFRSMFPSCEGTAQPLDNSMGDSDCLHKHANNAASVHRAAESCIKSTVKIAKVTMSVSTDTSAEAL
UniProt P32121: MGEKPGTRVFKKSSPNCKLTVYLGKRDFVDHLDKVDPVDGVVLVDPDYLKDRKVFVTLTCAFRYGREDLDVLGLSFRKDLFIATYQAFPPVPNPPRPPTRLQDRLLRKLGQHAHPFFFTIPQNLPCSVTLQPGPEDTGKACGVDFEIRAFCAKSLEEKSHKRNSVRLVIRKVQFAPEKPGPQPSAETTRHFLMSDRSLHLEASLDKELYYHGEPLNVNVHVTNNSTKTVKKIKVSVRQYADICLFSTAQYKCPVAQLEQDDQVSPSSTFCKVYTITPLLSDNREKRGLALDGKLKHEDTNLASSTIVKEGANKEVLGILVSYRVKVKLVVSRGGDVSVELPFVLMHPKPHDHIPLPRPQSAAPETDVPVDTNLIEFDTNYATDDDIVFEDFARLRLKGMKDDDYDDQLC

Columns and labels:
[1] = molecular target: CB2R-YFP (human) (UniProt P34972); experiment: FRET or BRET; BRET between β-arrestin 2-Rluc and receptor-YFP in living HEK-293T cells 48 h after transfection; cells treated with CBG (1 nM to 10 μM, 15 min); CB1R-YFP cells also with 100 nM AEA or ACEA with or without 100 nM or 1 μM CBG; CB2R-YFP cells also with co-expressed untagged CB1R; 5 μM coelenterazine H; read-out in mBRET units
[2] = molecular target: CB1R-YFP (human) (UniProt P21554); experiment: as above

binding [1]: binds
binding [2]: binds
Substance: β-arrestin 2-Rluc (from UniProt P32121 1-409)
